Laboratory results reported in US20220363748A1.
These are yes or no findings as the source states them, for the method shown.

Target: T1, Irrelevant (human) (UniProt P07306)
T1 sequence (control antigen, biotinylated at the Avitag with BirA (p-0297), looked up): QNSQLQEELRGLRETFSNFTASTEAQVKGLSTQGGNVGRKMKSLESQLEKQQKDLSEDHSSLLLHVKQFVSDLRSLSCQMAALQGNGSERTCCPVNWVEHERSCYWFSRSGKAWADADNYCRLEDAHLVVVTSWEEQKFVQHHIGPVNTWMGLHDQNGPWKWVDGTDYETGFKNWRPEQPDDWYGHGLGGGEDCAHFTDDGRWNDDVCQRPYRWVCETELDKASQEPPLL
Assay: condition: 10 µg/mL EGFR-Fc, with or without 10 µg/mL untagged RAGE (not on the sheet); ELISA: biotinylated antigen on streptavidin plate, EGFR-Fc with or without untagged RAGE, detection with anti-human IgG HRP

For “EGFR-Fc (R&D Systems #344-ER-050) (from UniProt P00533 25-645) (Fc fusion)”, the binding was “no binding”.
